Measurements taken from PubChem BioAssay AID662 (National Center for Advancing Translational Sciences (NCATS), 2007).
Values joined by “and” are separate entries in the source; they are usually repeats but may differ in a detail not shown here. Identical values can stand only once. Some of the results follow. The main result of the screen is listed elsewhere. These columns were measured beside it and carry no call. Compounds called inactive in the main read-out are mostly missing here. Potencies come from curve fits of mixed quality, noted in brackets.

Test: Cell signaling CRE-BLA (Fsk stim)
Details: CHO CRE-bla reporter (cAMP response element driving beta-lactamase), forskolin EC10, beta-lactamase ratio; measured here: 460 nm blue channel
Procedure, shortened: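 Modulation of forskolin-driven signalling is measured in CHO cells carrying a CRE-controlled beta-lactamase reporter. Cells are stimulated with EC10 NKH 477 in the presence of titrated compound for 3 h at 37 °C, then loaded with CCF4 for 2 h at room temperature.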

Compound | AC50
CCCCN(C)C(=O)c1coc(=O)c2ccccc12 | 0.0631 µM [falling, full curve]
COc1ccc(-c2nn3c(-c4ccc(F)cc4)nnc3s2)cc1 | 5.01 µM [falling, single point]
Cc1n[nH]c(C)c1S(=O)(=O)N(CC(=O)Nc1ccc2c(c1)OCCO2)c1ccc(C(C)C)cc1 | 10 µM [falling, partial curve]
Cc1nc2cnc(N3CCN(C)CC3)nc2n(Cc2cccs2)c1=O | 12.6 µM [rising, single point]
COc1ccc(S(=O)(=O)N(C)CC(=O)O)c2ccccc12 | 0.0501 µM [falling, full curve, poor fit]
COc1ncc2nc(-c3ccc(F)cc3)c(=O)n(Cc3ccc(F)cc3)c2n1 | 10 µM [rising, partial curve]
COc1cccc(Nc2ncc3nc(CCc4ccccc4)c(=O)n(C[C@H]4CCCO4)c3n2)c1 | 7.94 µM [rising, partial curve]
CCCn1c(=O)c2ccccc2n2c(SCCOc3ccc(C)cc3)nnc12 | 2 µM [falling, partial curve]
N#CC1=C(N)OC2=C(C(=O)CCC2)C1c1ccccc1 (configuration not stated) | 1 µM [rising, partial curve]
N#Cc1nc(-c2ccco2)oc1N1CCOCC1 | 0.794 µM [rising, partial curve]
Clc1ccc(OCc2nc(-c3ccccn3)no2)c(Br)c1 | 10 µM [rising, partial curve]
Nc1c(C(=O)NCc2ccco2)sc2nc3c(cc12)C(=O)CCC3 | 12.6 µM [rising, single point]
COc1ccc(S(=O)(=O)N2CCN(c3cccc(C)c3C)CC2)cc1 | 6.31 µM [falling, partial curve]
CCOc1ccc(-c2nc(-c3ccccc3)no2)cc1OCC | 10 µM [rising, single point]
CN(C)C(=O)CSc1nnc(-c2cc(-c3cccs3)nc3ccccc23)o1 | 0.316 µM [falling, partial curve]
COc1ccc(-n2c(=O)c(-c3cccs3)nc3cnc(N4CCN(C)CC4)nc32)cc1 | 12.6 µM [rising, partial curve]
Cn1c(=O)c(-c2ccc(F)cc2)nc2cnc(N3CCOCC3)nc21 | 2 µM [rising, full curve]
CCn1nnnc1SCC(=O)Nc1cccc(NC(C)=O)c1 | 0.0126 µM [falling, full curve, poor fit]
Cc1ccc(Cn2c(N3CCCCCC3)nc3c2c(=O)[nH]c(=O)n3C)cc1 | 10 µM [rising, single point]
CCOC(=O)CSc1nnc(CSc2nc3sc4c(c3c(=O)[nH]2)CCC4)n1C | 12.6 µM [rising, partial curve]
O=C1c2ccccc2-c2c1nc1c([n+]2[O-])CCCC1 | 10 µM [rising, single point]
CN(CCC#N)C(=O)CSc1ncnc2sc(-c3ccccc3)cc12 | 3.98 µM [falling, single point]
COc1cccc(-c2cc(C(F)(F)F)nc(-n3cncn3)n2)c1 | 7.94 µM [rising, partial curve]

Compound | AC50
COc1ccc(-c2nc3n(c(=O)c2C#N)CCCS3)cc1 | 10 µM [rising, single point]
COC(=O)c1ccccc1Nc1cc(C)nc2nc(C)nn12 | 12.6 µM [rising, partial curve]
O=C(CCc1ccccc1)Nc1ccc(Cl)cn1 | 12.6 µM [rising, single point]
O=C(CCCC(=O)N(CC(=O)NC1CCCC1)Cc1ccccc1)Nc1ccccn1 | 3.16 µM [falling, partial curve]
CCCN1CN(Cc2ccco2)c2nc3ccccc3n2C1 | 0.0251 µM [falling, full curve, poor fit]
COc1cccc(NC(=O)NC2(C(F)(F)F)Oc3ccccc3O2)c1 | 12.6 µM [falling, partial curve, poor fit]
CCN(CC)CCCNC(=O)N[C@@H](Cc1ccccc1)C(=O)O | 12.6 µM [falling, partial curve]
O=C(c1ccc2c(c1)OCCO2)N(c1ccccn1)C1CCCCC1 | 0.00794 µM [falling, full curve, poor fit]
CCn1c(SCC(=O)Nc2ccc(C(=O)OC)cc2)nnc1-c1cccs1 | 25.1 µM [rising, single point]
COc1ccc(C(=O)NCCc2ccc(S(N)(=O)=O)cc2)cc1OC | 0.398 µM [falling, full curve]
CCCCn1c2nc3ccccc3nc2c2c(=O)n(C(C)CC)cnc21 (configuration not stated) | 2 µM [rising, partial curve]
CCc1ccc2c(CN3CCN(S(=O)(=O)c4ccc5c(c4)OCCO5)CC3)cc(=O)oc2c1 | 25.1 µM [falling, single point]
COc1ccc(OC)c(S(=O)(=O)N2C(C)CCCC2C)c1 (configuration not stated) | 2 µM [falling, full curve, poor fit]
Clc1cccc(N2CCN(Cc3nc(-c4ccccc4)no3)CC2)c1 | 6.31 µM [falling, partial curve]
CCN(Cc1cc2ccccc2[nH]c1=O)S(=O)(=O)c1ccccc1 | 10 µM [rising, single point]
CCCn1c(SCC(=O)N2CCN(c3ccc(OC)cc3)CC2)nc2c1c(=O)n(C)c(=O)n2C | 10 µM [rising, partial curve]
O=C(COc1ccc(Cl)cc1Cl)NC(=O)N1CCCCC1 | 25.1 µM [rising, single point]
CCn1cc(C(=O)NCc2ccc3c(c2)OCO3)c(=O)c2cc(F)c(N3CCN(C)CC3)cc21 | 10 µM [rising, partial curve]
CCOc1ccc(-c2nc(N)nc(C)c2-c2ccc(OC)c(OC)c2)c(O)c1 | 5.01 µM [falling, partial curve, poor fit]
CCCN(C(=O)CSc1nnc(-c2ccoc2C)n1N)C1CCS(=O)(=O)C1 (configuration not stated) | 2.51 µM [falling, single point]
COc1ccc2nc3c(c(-c4ccccc4)c2c1)CCC3 | 10 µM [rising, partial curve]
Cn1cccc1Cc1nnc(SCC(=O)Nc2ccc3c(c2)OCCO3)n1-c1ccc(F)cc1 | 6.31 µM [falling, partial curve]
c1ccc(Nc2cc(Nc3ccccc3)[nH]n2)cc1 | 12.6 µM [falling, single point]

Compound | AC50
Cc1noc(C)c1C(=O)OCC(=O)c1c[nH]c2ccccc12 | 5.01 µM [falling, single point]
COCCn1c(=O)c(-c2ccc(Cl)cc2)nc2cnc(Nc3ccccc3)nc21 | 0.794 µM [rising, full curve]
OCCN(Cc1ccccc1)Cc1ccc(F)c(F)c1 | 0.00398 µM [falling, full curve, poor fit]
COc1ccc(NC(=O)CSc2nc3ccccc3c(=O)n2-c2ccc3c(c2)OCO3)c(OC)c1 | 3.98 µM [rising, partial curve]
CCOC(=O)C1=C(C)NC2=C(C(=O)CC(c3ccc(OC)c(OC)c3)C2)C1c1ccc(C)o1 (configuration not stated) | 6.31 µM [rising, partial curve]
COc1ccc(OC)c(C2C3=C(CCCC3=O)Nc3nc4ccccc4n32)c1 (configuration not stated) | 0.0158 µM [falling, full curve, poor fit]
FC(F)(F)c1ccccc1-c1nccc(-n2ccnc2)n1 | 10 µM [rising, single point]
COc1ccc(OCc2nc(C#N)c(N3CCN(c4ccc(OC)cc4)CC3)o2)cc1 | 25.1 µM [falling, single point]
Cn1c(NCc2ccccc2)cc(=O)n(C)c1=O | 25.1 µM [falling, single point]
CCOC(=O)CN1C(=O)C(O)(c2c(C)[nH]c3ccccc23)c2ccccc21 (configuration not stated) | 10 µM [falling, partial curve]
COc1ccc(NC(=O)Nc2ccc3nccnc3c2)cc1 | 0.0501 µM [falling, full curve, poor fit]
Cc1cccc(CNc2ccnc(-c3ccc(C(=O)N(C)C)cc3)n2)c1 | 0.126 µM [rising, full curve]
COc1cc2ncnc(Nc3cccc(Cl)c3)c2cc1OC | 25.1 µM [rising, partial curve] and 7.94 µM [rising, full curve, poor fit]
COC(=O)c1ccccc1NC(=O)C1CCN(C(=O)c2cc(OC)c(OC)c(OC)c2)CC1 | 10 µM [rising, single point]
O=c1cc(Nc2ccc3c(c2)OCCO3)[nH]c(=O)n1-c1ccc(Cl)cc1 | 0.398 µM [falling, full curve]
O=C1c2oc3ccc(F)cc3c(=O)c2C(c2ccccc2)N1CC1CCCO1 (configuration not stated) | 25.1 µM [falling, single point]
Cc1noc(C)c1CSc1nc2[nH]ncc2c(=O)n1-c1ccccc1 | 10 µM [rising, partial curve]
COc1ccc(-c2noc(N(C)CC(=O)Nc3cccc(C(F)(F)F)c3)n2)cc1 | 0.02 µM [falling, full curve]
Nc1nc(N)c(N=Nc2ccc(C(=O)O)c(O)c2)c(N)n1 | 5.01 µM [falling, single point]
COc1ccc(CNC(=O)c2cnn3c(C(F)F)cc(C)nc23)cc1OC | 10 µM [rising, partial curve]
COc1ccc(-c2nc3cnc(N4CCOCC4)nc3n(C3CC3)c2=O)cc1 | 1 µM [rising, full curve]
